Assay: general procedure: Fmoc solid-phase peptide synthesis; Polystyrene Rink amide resin, 75–100 mesh, 1% DVB, 0.5 mmol/g (Advanced Chemtech); HBTU, DIEA in DMF
Settings: whole synthesis; for final LC-MS purity / crude LC-MS purity: 280 nm; for final LC-MS purity / crude LC-MS purity / isolated yield: scale of the general procedure 200 mg resin (0.5 mmol/g)
[1] = LC-MS, 10–90% MeOH or MeCN (0.1% FA) in water (0.1% FA) over 14 min

Row | Substance | isolated mass | final LC-MS purity | crude LC-MS purity [1] | final LC-MS purity [1] | isolated yield
1 | H-D-Arg- D-Tyr-(3S ,4S)-Hgl-(S)-Val-D-Glu- D-Leu- D-Ala-NH2 | 10 mg | >99% | 45% | >95% | 12%
2 | H-D-Arg- D-Tyr-(3R ,4R)-Hgl-(S)-Val-D-Glu-D-Leu- D-Ala-NH2 | 11 mg | >99% | 55% | >95% | 13%
3 | H-D-Arg- D-Tyr-(3R ,4S)-Hgl-(S)-Val-D-Glu-D-Leu- D-Ala-NH2 | 11 mg | >99% | 52% | >95% | 13%
4 | H-D-Arg-D-Tyr-(S)-Agl-D-Val-D-Glu-D-Leu-D-Ala-NH2 | 12 mg | >99% | 42% | >95% | 15%
5 | H-D-Arg-D-Tyr-(R)-Agl-D-Val-D-Glu-D-Leu-D-Ala-NH2 | 10 mg | >99% | 44% | >95% | 12%
6 | H-D-Arg-D-Tyr-(S)-Agl-(S)-Val-D-Glu-D-Leu-D-Ala-NH2 | 11 mg | >99% | 56% | >95% | 13%
7 | H-D-Arg- D-Tyr-(3S ,4S)-Hgl-D-Val- D-Glu- D-Leu- D-Ala- NH2 | 8 mg | >99% | 35% | >95% | 9%
8 | H-D-Arg- D-Tyr-(3S ,4R)-Hgl-D-Val- D-Glu-D-Leu- D-Ala- NH2 | 9 mg | >99% | 42% | >95% | 11%
9 | H-D-Arg- D-Tyr-(3S ,4R)-Hgl-(S)-Val-D-Glu-D-Leu- D-Ala-NH2 | 10 mg | >99% | 39% | >95% | 12%
10 | H-D-Arg- D-Tyr-(3R ,4S)-Hgl-D-Val- D-Glu- D-Leu- D-Ala- NH2 | 12 mg | >99% | 69% | >95% | 14%
11 | H-D-Arg-D-Tyr-(R)-Agl-(S)-Val-D-Glu-D-Leu-D-Ala-NH2 | 13 mg | >97% | 63% | >95% | 16%
12 | H-D-Arg- D-Tyr-(3R ,4R)-Hgl-D-Val- D-Glu- D-Leu- D-Ala- NH2 | 7 mg | >99% | 42% | >95% | 8%

— paper PMC6381024 (Frontiers in Chemistry, 2019)
